Measured data: PubChem BioAssay AID1224830 (NIAID, 2016)

Aim: 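Regulators of TLR4 signalling towards TNF-alpha in macrophage-like cells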 (primary screen)
System: human THP-1 monocytic leukaemia cells, TNF dual-luciferase reporter clone, PMA-differentiated to macrophage-like cells
Reagents: siRNA pool against human genes, 50 nM
Timing: LPS for 4 h, given about 3 days after siRNA transfection
Conditions: bacterial LPS (TLR4 ligand), 10 ng/ml
Detection: 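Ratio of firefly to renilla light, scaled to the plate median and expressed as a robust z-score per replicate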
Direction: TNF reporter robust z-score: higher = stronger TNF reporter response to LPS
Call rule: 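Each well counts as active if its z-score is over 2.8 or under -1.5; controls are left without a call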
The whole screen tested about 18,000 reagents; below is a part drawn at random. About 2,900 of them (16%) count as active. 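Calls are made per well; low scores hint the gene aids the LPS response, high scores that it dampens it.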 A number with no mark means an inactive call. Repeated entries: four replicate wells of each siRNA pool.

| TNF reporter robust z-score | target |
| --- | --- |
| -0.21 | TRPV1 |
| 2.86 (active) | TRPV1 |
| 0.45 | TRPV1 |
| 0.8 | TRPV1 |
| 0.08 | PAPSS2 |
| 0.22 | PAPSS2 |
| 0.95 | PAPSS2 |
| 0.8 | SLC52A2 |
| 0.71 | SLC52A2 |
| 0.28 | SLC52A2 |
| 0.75 | SLC52A2 |
| -2.09 (active) | LONRF2 |
| 1.43 | LONRF2 |
| -0.08 | LONRF2 |
| -0.99 | LONRF2 |
| -0.42 | C1orf105 |
| 1.66 | C1orf105 |
| 3.26 (active) | C1orf105 |
| -0.78 | C1orf105 |
| -0.48 | UTP3 |
| 0.21 | UTP3 |
| -1.28 | UTP3 |
| 0.15 | UTP3 |
| -0.45 | GABRA5 |
| -1.8 (active) | GABRA5 |
| -0.71 | GABRA5 |
| -1.21 | GABRA5 |
| 3.23 (active) | RBMX |
| 5.02 (active) | RBMX |
| 4.99 (active) | RBMX |
| 3.41 (active) | RBMX |
| 0.13 | KYAT3 |
| 0.81 | KYAT3 |
| -0.39 | KYAT3 |
| 0.57 | KYAT3 |
| -1 | PODNL1 |
| 0.69 | PODNL1 |
| 0.93 | PODNL1 |
| 0.76 | PODNL1 |
| 0.6 | AIMP2 |
| -0.52 | AIMP2 |
| -0.49 | AIMP2 |
| 0.42 | AIMP2 |
| -1.34 | RPL36AL |
| -1.18 | RPL36AL |
| -1.22 | RPL36AL |
| -1.32 | RPL36AL |
| 1.27 | ERLEC1 |
| 2 | ERLEC1 |
| 1.1 | ERLEC1 |
| -0.13 | ERLEC1 |
| -1.21 | LGALS3BP |
| -0.92 | LGALS3BP |
| -1.25 | LGALS3BP |
| -0.27 | LGALS3BP |
| -1.36 | TEP1 |
| -0.77 | TEP1 |
| -1 | TEP1 |
| -0.8 | TEP1 |
| 0.95 | BHLHE41 |
| 0.8 | BHLHE41 |
| 0.29 | BHLHE41 |
| 1.34 | BHLHE41 |
| -0.05 | STK32B |
| 0.85 | STK32B |
| 0.96 | STK32B |
| 1.15 | STK32B |
| 0.84 | LINC01587 |
| 0.82 | LINC01587 |
| -0.59 | LINC01587 |
| 0.96 | LINC01587 |
| 0 | HYKK |
| 1.39 | HYKK |
| -0.38 | HYKK |
| 0.3 | HYKK |
| 1.41 | SNRPD1 |
| 1.08 | SNRPD1 |
| 1.03 | SNRPD1 |
| 1.18 | SNRPD1 |
| -0.83 | SYVN1 |
| -0.12 | SYVN1 |
| 0.9 | SYVN1 |
| 0.85 | SYVN1 |
| -1.02 | CCNYL1 |
| -0.37 | CCNYL1 |
| -0.84 | CCNYL1 |
| -1.17 | CCNYL1 |
| 1 | ZNF676 |
| 0.22 | ZNF676 |
| 0.66 | ZNF676 |
| 0.46 | ZNF676 |
| -0.98 | KRT78 |
| -0.64 | KRT78 |
| -1.31 | KRT78 |
| -0.73 | KRT78 |
| 0.36 | RB1CC1 |
| -0.28 | RB1CC1 |
| 0.07 | RB1CC1 |
| 0.16 | RB1CC1 |
| 0.79 | PRKAA2 |
| 0.63 | PRKAA2 |
| 0.01 | PRKAA2 |
| 1.36 | PRKAA2 |
| -1.99 (active) | TECTB |
| -1.52 (active) | TECTB |
| 1.38 | TECTB |
| -0.26 | TECTB |
| -0.59 | C7orf25 |
| -0.52 | C7orf25 |
| 0.55 | C7orf25 |
| -0.28 | C7orf25 |
